Reference: patent US20250333534A1
Results are given in words; binding and its absence hold for the method and conditions named. Some results given as binding are weak or reduced against the parent protein; the word gives no strength. For some assays here: Tags and fused reporters may be left off the sequences shown.

T1: CD155-His tag fusion protein (purchased from Acro) (human) (UniProt P15151)
T1 sequence (looked up): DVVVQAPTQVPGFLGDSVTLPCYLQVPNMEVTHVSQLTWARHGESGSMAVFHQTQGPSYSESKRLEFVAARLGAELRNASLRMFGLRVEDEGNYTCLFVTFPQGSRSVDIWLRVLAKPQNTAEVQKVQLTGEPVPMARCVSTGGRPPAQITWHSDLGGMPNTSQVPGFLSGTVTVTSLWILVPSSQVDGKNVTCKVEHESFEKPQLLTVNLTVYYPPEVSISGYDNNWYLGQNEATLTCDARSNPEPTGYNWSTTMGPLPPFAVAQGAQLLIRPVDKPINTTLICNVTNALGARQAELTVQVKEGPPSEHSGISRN

T2: Rhesus CD155 protein (Rhesus CD155), expressed on CHO-K1 cells (Rhesus (monkey))
T2 sequence: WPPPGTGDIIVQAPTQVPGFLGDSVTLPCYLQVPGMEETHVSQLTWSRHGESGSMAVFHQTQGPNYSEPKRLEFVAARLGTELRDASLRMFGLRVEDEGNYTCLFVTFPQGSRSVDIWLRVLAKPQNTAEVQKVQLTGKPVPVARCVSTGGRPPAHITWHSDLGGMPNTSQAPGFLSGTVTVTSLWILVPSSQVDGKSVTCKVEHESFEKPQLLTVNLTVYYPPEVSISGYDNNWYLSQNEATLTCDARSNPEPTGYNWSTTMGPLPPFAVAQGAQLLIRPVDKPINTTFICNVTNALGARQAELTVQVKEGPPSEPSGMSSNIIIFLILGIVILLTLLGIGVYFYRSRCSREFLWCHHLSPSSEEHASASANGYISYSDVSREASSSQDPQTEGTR


How the values were obtained:
[1] = molecular target: Rhesus CD155-His tag fusion protein (purchased from Acro) (Rhesus (monkey)); assay: ELISA on coated Rhesus CD155-His
[2] = molecular target: T1, CD155-His tag fusion protein (purchased from Acro) (human); assay: ELISA on coated CD155-His
[3] = molecular target: T2, Rhesus CD155 protein (Rhesus CD155), expressed on CHO-K1 cells (Rhesus (monkey)); assay: flow cytometry on CHO-K1-Rhesus CD155 cells

binding [1] | binding [2] | binding [3] | Binder
binds | binds | binds | affinity-matured humanized antibody V20 (tgi1005 V20-hIgG1/4/1LALA) (antibody, V domains shown) VH: QVQLVQSGAEVKKPGASVKVSCKASGYTFTSSYISWVRQAPGQGLEWIAWIYAGTGDTNYNQKFTGRVTMTTDTSTSTAYMELRSLRSDDTAVYYCARHGYTGRGWYFAVWGQGTTVTVSS VL: QAVVTQEPSLTVSPGGTVTLTCRSSTGAVTTSNLANWVQQKPGQAFRGLIGHTNNRAPGVPARFSGSLLGDKAALTLSGAQPEDEAEYYCALWYSNKFVFGGGTKLTVL
binds | binds | binds | affinity-matured humanized antibody V28 (tgi1005 V28-hIgG1/4/1LALA) (antibody, V domains shown) VH: QVQLVQSGAEVKKPGASVKVSCKASGYTFTSSYISWVRQAPGQGLEWIAWIYAGTGDTNYNQKFTGRVTMTTDTSTSTAYMELRSLRSDDTAVYYCARHGLTGRHWYFAVWGQGTTVTVSS VL: QAVVTQEPSLTVSPGGTVTLTCRSSTGAVTTSNIANWVQQKPGQAFRGLIGGTNNRGPGVPARFSGSLLGDKAALTLSGAQPEDEAEYYCILWYSNKFVFGGGTKLTVL
binds | binds | binds | affinity-matured humanized antibody V21 (tgi1005 V21-hIgG1/4) (antibody, V domains shown) VH: QVQLVQSGAEVKKPGASVKVSCKASGYTFTSSYISWVRQAPGQGLEWIAWIYAGTGDTNYNQKFTGRVTMTTDTSTSTAYMELRSLRSDDTAVYYCARHGYTGRGWYFAVWGQGTTVTVSS VL: QAVVTQEPSLTVSPGGTVTLTCRSSTGAVTTSNYANWVQQKPGQAFRGLIGGTNNRAPGVPARFSGSLLGDKAALTLSGAQPEDEAEYYCILWYSNHFVFGGGTKLTVL
binds | binds | binds | affinity-matured humanized antibody V40 (tgi1005 V40-hIgG1/4) (antibody, V domains shown) VH: QVQLVQSGAEVKKPGASVKVSCKASGYTFTSSYISWVRQAPGQGLEWIAWIYAGTGDTNYNQKFTGRVTMTTDTSTSTAYMELRSLRSDDTAVYYCARHGMTGRGWYFAVWGQGTTVTVSS VL: QAVVTQEPSLTVSPGGTVTLTCRSSTGAVTTSNLANWVQQKPGQAFRGLIGHTNNRAPGVPARFSGSLLGDKAALTLSGAQPEDEAEYYCILWYSNKFVFGGGTKLTVL
 | binds |  | humanized antibody V0 (tgi1005 V0-hIgG1/4) (antibody, V domains shown) VH: QVQLVQSGAEVKKPGASVKVSCKASGYTFTSSYISWVRQAPGQGLEWIAWIYAGTGDTNYNQKFTGRVTMTTDTSTSTAYMELRSLRSDDTAVYYCARHGSTGRGWYFAVWGQGTTVTVSS VL: QAVVTQEPSLTVSPGGTVTLTCRSSTGAVTTSNYANWVQQKPGQAFRGLIGGTNNRAPGVPARFSGSLLGDKAALTLSGAQPEDEAEYYCALWYSNHFVFGGGTKLTVL
 |  | binds | murine CD155 antibody (mutgi1005) (antibody, mouse IgG2a) heavy: QVQMQQSGAELVKPGASVKLSCKTSGFTFSSSYISWLKQKPGQSLEWIAWIYAGTGDTNYNQKFTGKAQVTVDTSSSTAYMQFSSLTTEDSAIYYCVRHGSTGRGWYFAVWGAGTTVTVSSAKTTAPSVYPLAPVCGDTTGSSVTLGCLVKGYFPEPVTLTWNSGSLSSGVHTFPAVLQSDLYTLSSSVTVTSSTWPSQSITCNVAHPASSTKVDKKIEPRGPTIKPCPPCKCPAPNLLGGPSVFIFPPKIKDVLMISLSPIVTCVVVDVSEDDPDVQISWFVNNVEVHTAQTQTHREDYNSTLRVVSALPIQHQDWMSGKEFKCKVNNKDLPAPIERTISKPKGSVRAPQVYVLPPPEEEMTKKQVTLTCMVTDFMPEDIYVEWTNNGKTELNYKNTEPVLDSDGSYFMYSKLRVEKKNWVERNSYSCSVVHEGLHNHHTTKSFSRTPGK light: QAVVTQESALTTSPGETVTLTCRSSTGAVTTSNYANWVQEKPDHLFTGLIGGTNNRAPGVPARFSGSLIGDKAALTITGAQTEDEAIYFCALWYSNHFVFGGGTKLTVLQPKSSPSVTLFPPSSEELETNKATLVCTITDFYPGVVTVDWKVDGTPVTQGMETTQPSKQSNNKYMASSYLTLTARAWERHSSYSCQVTHEGHTVEKSLSRADCS
